According to US20250025473A1 (priority 2021, published 2025):

Test system: phosphorylated Akt (pAkt T308)
Format: cell-based, human
Details: HaCat, 10 μM insulin, permeabilized cells

With `CN[C@@H]1C[C@H]2O[C@@](C)([C@@H]1OC)n1c3ccccc3c3c4c(c5c6ccccc6n2c5c31)C(=O)NC4` [Staurosporine, (9S,10R,11R,13R)-2,3,10,11,12,13-hexahydro-10-methoxy-9-methyl-11-(methylamino)-9,13-epoxy-1H,9H-diindolo[1,2,3-gh:3′,2′,1′-lm]pyrrolo[3,4-j][1,7]benzodiazonin-1-one, reference compound] the “dose inhibiting intracellular Akt phosphorylation in response to insulin” value was ≤ 0.1 µM.
